# Experimental data: the supplement of paper PMC8728848
# The other results are listed elsewhere or left out.
# Key:
# Assay in all cases: glycan array binding signal (z-score within array); higher = stronger binding
# Details in all cases: glycan notation: IUPAC condensed, linker removed
# [1] = biological target: Gal(b1-4)GlcNAc(b1-6)GalNAc
# How it was run: (§1)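 The Consortium for Functional Glycomics database supplied 3228 glycan arrays, of which those lacking an available protein sequence were dropped. The binding signal, a within-array Z-score, was averaged across arrays of the same protein sequence and across linkers. Negative scores can be read as non-binding.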
# [2] = biological target: Gal(b1-4)GlcNAc(b1-6)[Gal(b1-3)]GalNAc
# How it was run: as §1
# [3] = biological target: Gal(b1-4)GlcNAc(b1-6)[Gal(b1-4)GlcNAc(b1-3)]GalNAc
# How it was run: as §1
# Gal(b1-4)GlcNAc6P = biological target: Gal(b1-4)GlcNAc6P
# How it was run: as §1
# Gal(b1-6)Gal = biological target: Gal(b1-6)Gal
# How it was run: as §1
# Gal3S(b1-3)GalNAc = biological target: Gal3S(b1-3)GalNAc
# How it was run: as §1
# Gal3S(b1-3)GlcNAc = biological target: Gal3S(b1-3)GlcNAc
# How it was run: as §1
# [4] = biological target: Gal3S(b1-3)[Fuc(a1-4)]GlcNAc
# How it was run: as §1
# Gal3S(b1-4)Glc = biological target: Gal3S(b1-4)Glc
# How it was run: as §1
# Gal3S(b1-4)Glc6S = biological target: Gal3S(b1-4)Glc6S
# How it was run: as §1
# Gal3S(b1-4)GlcNAc = biological target: Gal3S(b1-4)GlcNAc
# How it was run: as §1
# [5] = biological target: Gal3S(b1-4)[Fuc(a1-3)]Glc6S
# How it was run: as §1
# [6] = biological target: Gal3S(b1-4)[Fuc(a1-3)]GlcNAc
# How it was run: as §1
# [7] = biological target: Gal3S(b1-4)[Fuc(a1-3)]GlcNAc6S
# How it was run: as §1
# Gal3S4S(b1-4)GlcNAc = biological target: Gal3S4S(b1-4)GlcNAc
# How it was run: as §1
# Gal3S6S(b1-4)GlcNAc = biological target: Gal3S6S(b1-4)GlcNAc
# How it was run: as §1
# Gal3S6S(b1-4)GlcNAc6S = biological target: Gal3S6S(b1-4)GlcNAc6S
# How it was run: as §1
# Gal4S(b1-4)GlcNAc = biological target: Gal4S(b1-4)GlcNAc
# How it was run: as §1
# Gal4S6S(b1-4)GlcNAc = biological target: Gal4S6S(b1-4)GlcNAc
# How it was run: as §1
# Gal6P(b1-4)GlcNAc = biological target: Gal6P(b1-4)GlcNAc
# How it was run: as §1
# Gal6S(b1-3)GlcNAc = biological target: Gal6S(b1-3)GlcNAc
# How it was run: as §1
# Gal6S(b1-3)GlcNAc6S = biological target: Gal6S(b1-3)GlcNAc6S
# How it was run: as §1
# Gal6S(b1-4)Glc = biological target: Gal6S(b1-4)Glc
# How it was run: as §1
# Gal6S(b1-4)Glc6S = biological target: Gal6S(b1-4)Glc6S
# How it was run: as §1
# Gal6S(b1-4)GlcNAc = biological target: Gal6S(b1-4)GlcNAc
# How it was run: as §1
# Gal6S(b1-4)GlcNAc6S = biological target: Gal6S(b1-4)GlcNAc6S
# How it was run: as §1
# GalNAc(a1-3)Gal = biological target: GalNAc(a1-3)Gal
# How it was run: as §1
# GalNAc(a1-3)GalNAc = biological target: GalNAc(a1-3)GalNAc
# How it was run: as §1
# [8] = biological target: GalNAc(a1-3)GalNAc(b1-3)Gal(a1-4)Gal(b1-4)Glc
# How it was run: as §1
# [9] = biological target: GalNAc(a1-3)GalNAc(b1-3)Gal(a1-4)Gal(b1-4)GlcNAc
# How it was run: as §1
# GalNAc(b1-3)Gal = biological target: GalNAc(b1-3)Gal
# How it was run: as §1
# [10] = biological target: GalNAc(b1-3)Gal(a1-4)Gal(b1-4)GlcNAc
# How it was run: as §1
# [11] = biological target: GalNAc(b1-3)Gal(a1-4)Gal(b1-4)GlcNAc(b1-3)Gal(b1-4)Glc
# How it was run: as §1
# [12] = biological target: GalNAc(b1-3)Gal(a1-6)Gal(b1-4)Glc
# How it was run: as §1
# GalNAc(b1-3)GalNAc = biological target: GalNAc(b1-3)GalNAc
# How it was run: as §1
# GalNAc(b1-3)GlcNAc = biological target: GalNAc(b1-3)GlcNAc
# How it was run: as §1
# GalNAc(b1-4)Gal(b1-4)Glc = biological target: GalNAc(b1-4)Gal(b1-4)Glc
# How it was run: as §1
# GalNAc(b1-4)GlcNAc = biological target: GalNAc(b1-4)GlcNAc
# How it was run: as §1
binder,measurement,setting,value
Vd7LysM (Verticillium dahliae) (protein) RRGPEPKYPPAAGTSSYCSYWVDYEGDKSCSRVLEDNVVVLKDFARWNPTVGADCSGIKAGNSYCVEAFGEPEPIEVTTTTRAATTTTQPTATTTTFANGIATPQPTQSGMVTNCNKFHWIAEGVSCSQVISFQKITLADFVKWNPSVKSDCSGMWAGVNVCVGVVGSSTDTAKPTTTAPSNGVVTPQPTQPSMVTNCNKFHWIAKGVTCQQVISYQKISLADFVKWNPSVLSDCSGMWAEVQVCVGVIGSTPTTLATTTTTAGNGVSTPLPTQPGMVTNCAKFHWVAKGVTCNQIYSFQKITLEQFVSYNPTVKSDCSGMQAEVQVCVGLIAGTTPTTTRPPTTTAPGNGVSTPQPTQPGMVTNCAKFHWVAKGVTCNQIYSFQKITLEQFVSFNPTVKSDCTGMQAEVNVCVGLIGGNPTPTQTGNGIATPTPIQPGMVSNCKKFHWIAQGVTCQQVISFQKITLADFVKWNTGVGSDCRTMWAETNVCVGV,glycan array binding signal (z-score),[1],-0.1
same,glycan array binding signal (z-score),[2],-0.773
same,glycan array binding signal (z-score),[3],0.039
same,glycan array binding signal (z-score),Gal(b1-4)GlcNAc6P,1.44
same,glycan array binding signal (z-score),Gal(b1-6)Gal,-0.067
same,glycan array binding signal (z-score),Gal3S(b1-3)GalNAc,0.013
same,glycan array binding signal (z-score),Gal3S(b1-3)GlcNAc,0.215
same,glycan array binding signal (z-score),[4],0.301
same,glycan array binding signal (z-score),Gal3S(b1-4)Glc,0.548
same,glycan array binding signal (z-score),Gal3S(b1-4)Glc6S,0.238
same,glycan array binding signal (z-score),Gal3S(b1-4)GlcNAc,0.741
same,glycan array binding signal (z-score),[5],1.39
same,glycan array binding signal (z-score),[6],-0.338
same,glycan array binding signal (z-score),[7],0.512
same,glycan array binding signal (z-score),Gal3S4S(b1-4)GlcNAc,-1.45
same,glycan array binding signal (z-score),Gal3S6S(b1-4)GlcNAc,0.976
same,glycan array binding signal (z-score),Gal3S6S(b1-4)GlcNAc6S,-0.249
same,glycan array binding signal (z-score),Gal4S(b1-4)GlcNAc,-0.086
same,glycan array binding signal (z-score),Gal4S6S(b1-4)GlcNAc,0.198
same,glycan array binding signal (z-score),Gal6P(b1-4)GlcNAc,0.595
same,glycan array binding signal (z-score),Gal6S(b1-3)GlcNAc,1.19
same,glycan array binding signal (z-score),Gal6S(b1-3)GlcNAc6S,-0.874
same,glycan array binding signal (z-score),Gal6S(b1-4)Glc,0.824
same,glycan array binding signal (z-score),Gal6S(b1-4)Glc6S,0.388
same,glycan array binding signal (z-score),Gal6S(b1-4)GlcNAc,0.161
same,glycan array binding signal (z-score),Gal6S(b1-4)GlcNAc6S,0.706
same,glycan array binding signal (z-score),GalNAc(a1-3)Gal,-0.819
same,glycan array binding signal (z-score),GalNAc(a1-3)GalNAc,-0.607
same,glycan array binding signal (z-score),[8],-0.237
same,glycan array binding signal (z-score),[9],0.706
same,glycan array binding signal (z-score),GalNAc(b1-3)Gal,-1.46
same,glycan array binding signal (z-score),[10],-0.073
same,glycan array binding signal (z-score),[11],-0.875
same,glycan array binding signal (z-score),[12],0.796
same,glycan array binding signal (z-score),GalNAc(b1-3)GalNAc,1.01
same,glycan array binding signal (z-score),GalNAc(b1-3)GlcNAc,-0.808
same,glycan array binding signal (z-score),GalNAc(b1-4)Gal(b1-4)Glc,-0.137
same,glycan array binding signal (z-score),GalNAc(b1-4)GlcNAc,-0.187

# No new results follow: entries from further up.
binder,measurement,setting,value
Vd7LysM (Verticillium dahliae) (protein) RRGPEPKYPPAAGTSSYCSYWVDYEGDKSCSRVLEDNVVVLKDFARWNPTVGADCSGIKAGNSYCVEAFGEPEPIEVTTTTRAATTTTQPTATTTTFANGIATPQPTQSGMVTNCNKFHWIAEGVSCSQVISFQKITLADFVKWNPSVKSDCSGMWAGVNVCVGVVGSSTDTAKPTTTAPSNGVVTPQPTQPSMVTNCNKFHWIAKGVTCQQVISYQKISLADFVKWNPSVLSDCSGMWAEVQVCVGVIGSTPTTLATTTTTAGNGVSTPLPTQPGMVTNCAKFHWVAKGVTCNQIYSFQKITLEQFVSYNPTVKSDCSGMQAEVQVCVGLIAGTTPTTTRPPTTTAPGNGVSTPQPTQPGMVTNCAKFHWVAKGVTCNQIYSFQKITLEQFVSFNPTVKSDCTGMQAEVNVCVGLIGGNPTPTQTGNGIATPTPIQPGMVSNCKKFHWIAQGVTCQQVISFQKITLADFVKWNTGVGSDCRTMWAETNVCVGV,glycan array binding signal (z-score),Gal3S(b1-4)Glc,0.548
same,glycan array binding signal (z-score),Gal3S(b1-4)Glc6S,0.238
